Measured values: publication PMC7035317
Residue numbers refer to the chain shown, from its start. For at least one entry, the source does not settle the construct or the ends of the probe. For some assays here: Negatives hold for the conditions tested. Tags and fusion partners may be left off the protein sequences shown. For some assays here: At least one verdict was read from the data and is not stated in words by the source.

Columns and labels:
[1] = target: T1, native CPD photolyase Norin 1 (P78-R126-G283-Q296) (Oryza sativa ssp. japonica cv. Norin 1) (UniProt Q6F6A2); assay: pull-down (DNA affinity purification); details: dim red light, strand 2 UV-irradiated (254 nm, 8 h), CPDs at undefined positions, Bead purification: same buffer plus 10% glycerol, 4 C, native protein, label: 5'-biotin on strand 1, streptavidin beads
T1 sequence (looked up, limits assumed): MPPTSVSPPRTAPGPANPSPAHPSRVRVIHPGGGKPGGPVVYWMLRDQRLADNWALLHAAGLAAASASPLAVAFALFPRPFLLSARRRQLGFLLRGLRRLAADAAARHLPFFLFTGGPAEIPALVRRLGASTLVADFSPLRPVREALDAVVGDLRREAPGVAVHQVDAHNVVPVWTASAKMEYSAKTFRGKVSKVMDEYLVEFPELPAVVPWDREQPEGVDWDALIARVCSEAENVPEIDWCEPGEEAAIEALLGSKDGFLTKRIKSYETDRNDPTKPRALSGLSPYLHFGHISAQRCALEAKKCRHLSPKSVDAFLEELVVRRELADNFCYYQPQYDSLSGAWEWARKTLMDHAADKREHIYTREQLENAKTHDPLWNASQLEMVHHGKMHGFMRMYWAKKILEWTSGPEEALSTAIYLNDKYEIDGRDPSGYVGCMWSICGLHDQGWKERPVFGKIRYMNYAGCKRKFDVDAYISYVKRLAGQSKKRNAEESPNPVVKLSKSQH

[2] = target: T2, native CPD photolyase Sasanishiki (P78-Q126-G283-Q296) (Oryza sativa ssp. japonica cv. Sasanishiki) (UniProt Q6F6A2); assay: pull-down (DNA affinity purification); details: dim red light, strand 2 UV-irradiated (254 nm, 8 h), CPDs at undefined positions, Bead purification: same buffer plus 10% glycerol, 4 C, native protein, label: 5'-biotin on strand 1, streptavidin beads
T2 sequence (looked up, limits assumed): T1 sequence (looked up, limits assumed) with R126Q

[3] = target: T3, native CPD photolyase Surjamkhi (Sur-type, P78-R126-G283-H296) Q296H (Oryza sativa ssp. indica cv. Surjamkhi) (UniProt Q6F6A2); assay: pull-down (DNA affinity purification); details: dim red light, strand 2 UV-irradiated (254 nm, 8 h), CPDs at undefined positions, Bead purification: same buffer plus 10% glycerol, 4 C, native protein, label: 5'-biotin on strand 1, streptavidin beads
T3 sequence (looked up, limits assumed): T1 sequence (looked up, limits assumed) with Q296H

[4] = target: T4, native CPD photolyase TOB7307 (S78-R126-A283-Q296) P78S,G283A (Oryza barthii TOB7307) (UniProt Q6F6A2); assay: pull-down (DNA affinity purification); details: dim red light, strand 2 UV-irradiated (254 nm, 8 h), CPDs at undefined positions, Bead purification: same buffer plus 10% glycerol, 4 C, native protein, label: 5'-biotin on strand 1, streptavidin beads
T4 sequence (looked up, limits assumed): T1 sequence (looked up, limits assumed) with P78S, G283A

[5] = target: T5, native CPD photolyase TOG12380 (P78-R126-A283-Q296) G283A (Oryza glaberrima TOG12380) (UniProt Q6F6A2); assay: pull-down (DNA affinity purification); details: dim red light, strand 2 UV-irradiated (254 nm, 8 h), CPDs at undefined positions, Bead purification: same buffer plus 10% glycerol, 4 C, native protein, label: 5'-biotin on strand 1, streptavidin beads
T5 sequence (looked up, limits assumed): T1 sequence (looked up, limits assumed) with G283A

[6] = target: T6, native CPD photolyase TOS7940 (Sur-type, P78-R126-G283-H296) Q296H (UniProt Q6F6A2); assay: pull-down (DNA affinity purification); details: dim red light, strand 2 UV-irradiated (254 nm, 8 h), CPDs at undefined positions, Bead purification: same buffer plus 10% glycerol, 4 C, native protein, label: 5'-biotin on strand 1, streptavidin beads
T6 sequence (looked up, limits assumed): T1 sequence (looked up, limits assumed) with Q296H

[7] = target: T7, CPD photolyase Sasanishiki-type (P78-Q126-G283-Q296) (Oryza sativa ssp. japonica cv. Sasanishiki) (UniProt Q6F6A2); assay: EMSA; details: dark, 2 mM DTT, 80 mM NaCl, 25 C, 15 min, 0.3 pmol DNA, 0-400 ng protein, recombinant protein, protein details: N-terminal GST, removed by thrombin, label: 5'-32P on strand 1
T7 sequence (looked up, limits assumed): T1 sequence (looked up, limits assumed) with R126Q

ATGGCGCCAGACGTACTAATGTGTATACACGCGTGCATGATC (double strand) [UV-irradiated 42-mer duplex on magnetic beads]
binding result [1]: binds | binding result [2]: binds | binding result [3]: binds | binding result [4]: binds | binding result [5]: binds | binding result [6]: binds

CACGTACGCATCTTCTACGTACCGACAGTC (double strand) [30-mer duplex with thymine dimer (CPD)]
binding result ([7]; central thymine dimer (CPD) in strand 1, only central TT is T13-T14, EMSA: 40 mM potassium phosphate pH 7.2, 5 mM EDTA): binds

CACGTACGCATCTTCTACGTACCGACAGTC (double strand) [30-mer duplex without CPD]
binding result ([7]; EMSA: 40 mM potassium phosphate pH 7.2, 5 mM EDTA): no binding
